According to PubChem BioAssay AID588590 (National Center for Advancing Translational Sciences (NCATS), 2011):
The whole screen tested about 390,000 compounds, of which about 4,000 (1%) were called active. Inconclusive means that the source gave no clear call. Such entries were picked first, then a sample of the others. Calls follow the shape of the dose curve; as a rule, active = well fitted inhibition curve with a large enough effect; inconclusive = small, poorly fitted or top-dose-only effect, or another doubt; inactive = no such curve, though single readings can be large or run the other way. Where the call is inconclusive, the potency comes from a doubtful curve fit.
Potency is read from the fitted curve at half-maximal effect.

Protein sequences, listed by entry. Tags and fused reporters are not part of them. Lines headed by an entry give the natural chain unless they say otherwise; changes in a name come on top.
UniProt Q9UNA4: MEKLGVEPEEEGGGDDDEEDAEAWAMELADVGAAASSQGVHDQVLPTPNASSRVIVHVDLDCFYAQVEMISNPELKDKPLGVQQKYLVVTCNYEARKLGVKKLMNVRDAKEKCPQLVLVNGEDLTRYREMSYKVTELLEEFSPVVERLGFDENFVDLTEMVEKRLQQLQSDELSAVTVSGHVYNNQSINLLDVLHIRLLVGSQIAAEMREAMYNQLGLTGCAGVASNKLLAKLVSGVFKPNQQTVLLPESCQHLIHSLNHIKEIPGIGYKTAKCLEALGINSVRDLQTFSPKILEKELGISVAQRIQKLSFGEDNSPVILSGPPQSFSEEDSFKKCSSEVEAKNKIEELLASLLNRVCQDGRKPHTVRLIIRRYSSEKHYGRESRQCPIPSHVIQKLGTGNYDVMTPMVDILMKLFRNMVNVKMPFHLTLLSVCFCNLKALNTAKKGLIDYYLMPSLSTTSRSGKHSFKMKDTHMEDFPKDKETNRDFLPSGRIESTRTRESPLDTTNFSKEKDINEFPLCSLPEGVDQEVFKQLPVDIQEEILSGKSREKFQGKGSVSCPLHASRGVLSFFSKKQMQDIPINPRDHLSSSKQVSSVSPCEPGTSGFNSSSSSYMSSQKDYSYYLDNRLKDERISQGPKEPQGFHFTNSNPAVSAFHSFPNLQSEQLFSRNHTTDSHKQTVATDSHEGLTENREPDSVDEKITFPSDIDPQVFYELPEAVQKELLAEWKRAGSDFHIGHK

Each compound was assayed against DNA polymerase iota (Homo sapiens) (UniProt Q9UNA4) (assay: qHTS for Inhibitors of Polymerase Iota). Conditions: Pol iota fluorescent replication assay, 10 min; series mostly up to 115 µM; activity, negative = inhibition: at the top concentration.
Outline: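 Pol iota at 10 nM preincubated 15 min with compounds at room temperature; reaction started with fluorescent substrate, 50 nM final. Fluorescence read kinetically at 0 and 10 min; buffer-only wells as negative control.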
`COc1ccc(NC(=O)COc2cccc(-n3cnnn3)c2)cc1Cl` was tested, and the Potency was inconclusive: 39.8 µM [inhibitor, single point]. In the case of `CN(CC(=O)Nc1cccc(F)c1)C(=O)CSc1ccccc1`, the Potency is reported as inconclusive: 35.5 µM [inhibitor, partial curve, poor fit]. `O=C(CCNC(=O)c1ccccc1)NCCCc1ccccc1` was tested, and the “activity, negative = inhibition” value was inactive: 12.8%. In the case of `CCOCCCn1c(SCC(=O)OCC)nc2c(sc3ccccc32)c1=O`, the “activity, negative = inhibition” value is reported as inactive: 12.2%. In the case of `Cc1ccc(Cl)cc1NC(=O)[C@@H]1CCC(=O)N1C1OC(=O)c2ccccc21` (some centres not stated), the “activity, negative = inhibition” value is reported as inactive: 18.6%. `O=C(CC1(O)C(=O)N(CCc2ccccc2)c2ccc(Br)cc21)c1ccc(F)cc1` (configuration not stated) was tested, and the “activity, negative = inhibition” value was inactive: -11%. With `COc1cccc(-c2cn3c(n2)sc2cc(C(=O)NCCCc4ccccc4)ccc23)c1` the “activity, negative = inhibition” value was inactive: 10.3%. `CC(C)CCNC(=O)NC(=O)COC(=O)c1cc(S(=O)(=O)N2CCOCC2)ccc1N1CCCCC1` was tested, and the Potency was inconclusive: 2.24 µM [inhibitor, partial curve, poor fit]. For `C=CCSc1nnc(N2C(=O)C(O)=C(C(=O)c3ccco3)C2c2ccccc2F)s1` (configuration not stated), the Potency was inconclusive: 35.5 µM [inhibitor, full curve, poor fit]. In the case of `COc1ccc(C(=O)N/C(=C\c2cn(S(=O)(=O)N(C)C)c3ccccc23)C(=O)N2CCOCC2)cc1`, the “activity, negative = inhibition” value is reported as inactive: -7.84%. With `Nc1c(C(=O)NCc2ccc(Cl)cc2Cl)nnn1Cc1ccc(Br)cc1` the Potency was inconclusive: 89.1 µM [inhibitor, partial curve, poor fit]. With `CC(C)C[C@H](NC(=O)c1nc[nH]c1C(=O)N[C@@H](CCCCN)C(=O)OC(C)(C)C)C(=O)OC(C)(C)C` the Potency was inconclusive: 39.8 µM [inhibitor, single point]. For `CC(=O)c1ccc(S(=O)(=O)Nc2ccc(-c3ccc(N4CCCCCC4)nn3)cc2)cc1`, the “activity, negative = inhibition” value was inactive: 10.6%. For `Cc1ccc2c(=O)cc(C(=O)Nc3ccc(S(=O)(=O)N4CCC(C)CC4)cc3)oc2c1C`, the “activity, negative = inhibition” value was inactive: -8.69%. For `Cc1cc(C)c2c(N)c3cccc(C)c3nc2n1`, the Potency was inconclusive: 15.8 µM [inhibitor, full curve, poor fit]. With `COCCOC(=O)c1c(NC(=O)CNCc2ccco2)sc(C(N)=O)c1C` the Potency was inconclusive: 79.4 µM [inhibitor, partial curve]. In the case of `CCN1C(=O)/C(=C/C=C2/SCCN2C)SC1=S`, the “activity, negative = inhibition” value is reported as inactive: -5.14%. `O=C(O)CSCC(=O)c1ccccc1` was tested, and the Potency was inconclusive: 50.1 µM [inhibitor, partial curve]. In the case of `Cc1cc(C(=O)Nc2ccc(S(=O)(=O)Nc3onc(C)c3C)cc2)c(C)o1`, the Potency is reported as inconclusive: 25.1 µM [inhibitor, partial curve]. For `O=c1oc2c(O)cccc2cc1-c1nc2ccccc2[nH]1`, the Potency was inconclusive: 3.55 µM [inhibitor, full curve, poor fit]. `O=C1c2ccccc2-c2nnc(-c3ccc(F)cc3)cc21` was tested, and the Potency was inconclusive: 15.8 µM [inhibitor, full curve, poor fit]. With `COc1cccc(OCc2cc(C(=O)N3CCN(c4ccccc4OC)CC3)no2)c1` the “activity, negative = inhibition” value was inactive: 9.33%. With `COc1ccc(CNC(=O)c2ccc(NC(=O)N3CC4CCCN4c4ccccc43)cc2)cc1` (configuration not stated) the “activity, negative = inhibition” value was inactive: 29.1%. For `N#Cc1c(N2CCCC(O)C2)nc(N)c2c(N)nc3c(c12)CC(=O)N3C12CC3CC(CC(C3)C1)C2` (configuration not stated), the Potency was inconclusive: 5.01 µM [inhibitor, full curve, poor fit]. With `CCc1ccc2[nH]c3nc(SCCN4CCOCC4)nnc3c2c1` the Potency was inconclusive: 12.6 µM [inhibitor, partial curve, poor fit]. For `Cc1nn(-c2ccccc2)c(Cl)c1C(=O)Nc1c(C)n(C)n(-c2ccccc2)c1=O`, the Potency was inconclusive: 50.1 µM [inhibitor, partial curve, poor fit]. In the case of `Cc1cccc(/C=N/n2c(C3CCCCC3)n[nH]c2=S)c1`, the Potency is reported as inconclusive: 39.8 µM [inhibitor, single point]. For `Cc1ccsc1/C=C/C1=Cc2c(sc(NC(=O)CSc3n[nH]c(N)n3)c2C#N)C(C)(C)C1`, the Potency was inconclusive: 50.1 µM [inhibitor, partial curve, poor fit]. For `COc1cc(NS(=O)(=O)c2cnc(N)nc2)cc(OC)c1`, the “activity, negative = inhibition” value was inactive: 15.5%. For `CCOc1ccc(/C=C/C(=O)Nc2sc3c(c2C(=O)OC)C(C(=O)OC)CC3)cc1` (configuration not stated), the Potency was inconclusive: 44.7 µM [inhibitor, partial curve, poor fit]. With `O=C(O)c1ccc(N2CCCS2(=O)=O)cc1` the “activity, negative = inhibition” value was inactive: -13.2%. `Cc1nc2ccc(NC(=O)NCCO)cc2s1` was tested, and the Potency was inconclusive: 12.6 µM [inhibitor, partial curve, poor fit]. `O=C(NCCC1=CCCCC1)c1ccc2c(c1)N(Cc1ccccc1F)C(=O)c1ccccc1S2=O` (configuration not stated) was tested, and the “activity, negative = inhibition” value was inactive: 26.5%. `O=C(c1cc(COc2ccc3ncccc3c2)on1)N1CCCC1` was tested, and the “activity, negative = inhibition” value was inactive: 13.6%. For `Cc1ccc2nc(N3CCN(c4ccccc4)CC3)c3nnnn3c2c1`, the “activity, negative = inhibition” value was inactive: 10.3%. With `COc1ccc(C)cc1S(=O)(=O)N(CC(=O)Nc1cccc([N+](=O)[O-])c1)c1cc(C)cc(C)c1` the Potency was inconclusive: 89.1 µM [inhibitor, partial curve, poor fit]. With `C#CCOCCOCCOCCNc1nc(N2CCN(C(=O)Cn3cc(CCCCN)nn3)CC2)nc(N2CCN(C(=O)Cn3cc(CCCCN)nn3)CC2)n1` the Potency was inconclusive: 50.1 µM [inhibitor, partial curve, poor fit]. In the case of `C/C(CC(=O)Nc1ccc(Cl)cc1Cl)=N\NC(N)=S`, the Potency is reported as inconclusive: 17.8 µM [inhibitor, single point]. For `CC/C(=N\NC(=O)CNC(=O)/C=C/c1ccco1)c1ccccc1`, the Potency was inconclusive: 25.1 µM [inhibitor, partial curve, poor fit]. In the case of `CCCCN(C(=O)Cn1ncc(Cl)c(Cl)c1=O)c1c(N)n(CC(C)C)c(=O)[nH]c1=O`, the Potency is reported as active: 15.8 µM. `O=C(c1cccnc1)N(c1cc2sc(=O)oc2c2ccccc12)S(=O)(=O)c1ccccc1` was tested, and the Potency was inconclusive: 3.98 µM [inhibitor, full curve, poor fit]. `Cc1ccccc1NC(=O)CSc1[nH]c(=O)cc(C)c1C#N` was tested, and the Potency was inconclusive: 50.1 µM [inhibitor, partial curve, poor fit].
